In article PMC10210458:
No constants are given. Whether binding was seen depends on the method and setting. Binding seen in cells or lysates may run through a third protein. Some entries that bind do so weakly or less than the wild type. Tags and fused reporters may be left off the sequences shown.

Sequences of proteins named here, by UniProt entry; tags and fusion partners are left off.
UniProt O43303: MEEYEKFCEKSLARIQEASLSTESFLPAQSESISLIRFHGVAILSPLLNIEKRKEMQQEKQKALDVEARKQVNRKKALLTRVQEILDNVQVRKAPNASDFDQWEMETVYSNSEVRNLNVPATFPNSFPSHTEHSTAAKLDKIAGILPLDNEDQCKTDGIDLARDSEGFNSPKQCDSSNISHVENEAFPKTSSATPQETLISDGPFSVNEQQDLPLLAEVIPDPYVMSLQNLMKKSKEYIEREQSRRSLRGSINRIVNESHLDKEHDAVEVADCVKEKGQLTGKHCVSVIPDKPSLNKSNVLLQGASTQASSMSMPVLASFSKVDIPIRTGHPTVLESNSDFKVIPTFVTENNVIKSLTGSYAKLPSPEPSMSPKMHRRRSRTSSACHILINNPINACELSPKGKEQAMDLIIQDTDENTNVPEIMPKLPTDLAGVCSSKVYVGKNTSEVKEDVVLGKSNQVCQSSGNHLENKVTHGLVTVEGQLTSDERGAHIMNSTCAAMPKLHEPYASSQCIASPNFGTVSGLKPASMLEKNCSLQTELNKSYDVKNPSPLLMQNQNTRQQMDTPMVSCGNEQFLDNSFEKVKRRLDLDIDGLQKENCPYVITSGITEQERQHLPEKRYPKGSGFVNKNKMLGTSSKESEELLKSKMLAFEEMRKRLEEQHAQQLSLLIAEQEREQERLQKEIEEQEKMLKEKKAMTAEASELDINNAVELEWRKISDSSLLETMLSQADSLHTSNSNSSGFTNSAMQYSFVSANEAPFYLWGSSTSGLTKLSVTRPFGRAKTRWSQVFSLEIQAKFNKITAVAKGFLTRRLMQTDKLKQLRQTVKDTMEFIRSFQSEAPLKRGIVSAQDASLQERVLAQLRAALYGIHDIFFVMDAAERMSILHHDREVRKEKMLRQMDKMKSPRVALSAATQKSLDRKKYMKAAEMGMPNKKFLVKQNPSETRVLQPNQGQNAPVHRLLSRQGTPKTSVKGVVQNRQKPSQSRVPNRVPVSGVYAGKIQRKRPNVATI

Tests used:
[1] = molecular target: CP110 (centriolar coiled-coil protein of 110 kDa) (human (endogenous in HEK293T)) (UniProt O43303); assay: co-IP; lysates of control HEK293T cells or cells stably expressing CCP5 precipitated with CP110 or CEP97 polyclonal antibodies on protein A/G magnetic beads, 4 °C, at least 2 h; immunoblot
[2] = molecular target: T1, CEP97 (centrosomal protein of 97 kDa) (human (endogenous in HEK293T)) (UniProt Q8IW35); assay: as above
T1 sequence: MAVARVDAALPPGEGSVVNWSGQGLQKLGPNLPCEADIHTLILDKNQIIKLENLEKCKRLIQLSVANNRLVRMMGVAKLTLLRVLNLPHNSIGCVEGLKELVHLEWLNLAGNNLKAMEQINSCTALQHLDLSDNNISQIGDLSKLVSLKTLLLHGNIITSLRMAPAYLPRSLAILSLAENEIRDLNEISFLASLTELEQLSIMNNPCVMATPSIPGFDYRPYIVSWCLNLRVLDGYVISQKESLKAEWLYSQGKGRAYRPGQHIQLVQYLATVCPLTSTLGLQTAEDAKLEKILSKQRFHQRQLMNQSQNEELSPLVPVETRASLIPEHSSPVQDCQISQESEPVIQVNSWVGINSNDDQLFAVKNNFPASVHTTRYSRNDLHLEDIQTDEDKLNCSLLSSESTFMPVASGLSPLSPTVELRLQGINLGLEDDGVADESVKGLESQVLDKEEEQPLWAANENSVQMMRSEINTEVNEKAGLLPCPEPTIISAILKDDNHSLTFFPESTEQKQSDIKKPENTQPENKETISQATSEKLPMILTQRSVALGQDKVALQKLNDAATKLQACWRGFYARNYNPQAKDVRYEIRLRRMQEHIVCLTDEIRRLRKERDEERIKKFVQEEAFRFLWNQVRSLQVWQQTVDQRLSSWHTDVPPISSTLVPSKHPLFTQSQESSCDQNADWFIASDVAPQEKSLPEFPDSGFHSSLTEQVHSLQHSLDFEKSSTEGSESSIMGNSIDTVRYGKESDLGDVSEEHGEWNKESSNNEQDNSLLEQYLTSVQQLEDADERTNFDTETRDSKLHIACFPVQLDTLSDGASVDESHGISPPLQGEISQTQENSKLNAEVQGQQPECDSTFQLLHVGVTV

- binding [1]: binds
- binding [2]: no binding
B1: myc-tagged CCP5 (cytosolic carboxypeptidase 5), full length (enzyme, UniProt Q8NDL9 1-886)
chain: MELRCGGLLFSSRFDSGNLAHVEKVESLSSDGEGVGGGASALTSGIASSPDYEFNVWTRPDCAETEFENGNRSWFYFSVRGGMPGKLIKINIMNMNKQSKLYSQGMAPFVRTLPTRPRWERIRDRPTFEMTETQFVLSFVHRFVEGRGATTFFAFCYPFSYSDCQELLNQLDQRFPENHPTHSSPLDTIYYHRELLCYSLDGLRVDLLTITSCHGLREDREPRLEQLFPDTSTPRPFRFAGKRIFFLSSRVHPGETPSSFVFNGFLDFILRPDDPRAQTLRRLFVFKLIPMLNPDGVVRGHYRTDSRGVNLNRQYLKPDAVLHPAIYGAKAVLLYHHVHSRLNSQSSSEHQPSSCLPPDAPVSDLEKANNLQNEAQCGHSADRHNAEAWKQTEPAEQKLNSVWIMPQQSAGLEESAPDTIPPKESGVAYYVDLHGHASKRGCFMYGNSFSDESTQVENMLYPKLISLNSAHFDFQGCNFSEKNMYARDRRDGQSKEGSGRVAIYKASGIIHSYTLECNYNTGRSVNSIPAACHDNGRASPPPPPAFPSRYTVELFEQVGRAMAIAALDMAECNPWPRIVLSEHSSLTNLRAWMLKHVRNSRGLSSTLNVGVNKKRGLRTPPKSHNGLPVSCSENTLSRARSFSTGTSAGGSSSSQQNSPQMKNSPSFPFHGSRPAGLPGLGSSTQKVTHRVLGPVREPRSQDRRRQQQPLNHRPAGSLAPSPAPTSSGPASSHKLGSCLLPDSFNIPGSSCSLLSSGDKPEAVMVIGKGLLGTGARMPCIKTRLQARPRLGRGSPPTRRGMKGSSGPTSPTPRTRESSELELGSCSATPGLPQARPPRPRSAPAFSPISCSLSDSPSWNCYSRGPLGQPEVCFVPKSPPLTVSPRV
